Paper doi:10.1101/2020.12.22.404020
These are yes or no findings as the source states them, for the method shown. Binding seen in cells or lysates may run through a third protein. Some results given as binding are weak or reduced against the parent protein; the word gives no strength.

By UniProt entry, the sequences of proteins in these tests, tags left out.
UniProt O00139: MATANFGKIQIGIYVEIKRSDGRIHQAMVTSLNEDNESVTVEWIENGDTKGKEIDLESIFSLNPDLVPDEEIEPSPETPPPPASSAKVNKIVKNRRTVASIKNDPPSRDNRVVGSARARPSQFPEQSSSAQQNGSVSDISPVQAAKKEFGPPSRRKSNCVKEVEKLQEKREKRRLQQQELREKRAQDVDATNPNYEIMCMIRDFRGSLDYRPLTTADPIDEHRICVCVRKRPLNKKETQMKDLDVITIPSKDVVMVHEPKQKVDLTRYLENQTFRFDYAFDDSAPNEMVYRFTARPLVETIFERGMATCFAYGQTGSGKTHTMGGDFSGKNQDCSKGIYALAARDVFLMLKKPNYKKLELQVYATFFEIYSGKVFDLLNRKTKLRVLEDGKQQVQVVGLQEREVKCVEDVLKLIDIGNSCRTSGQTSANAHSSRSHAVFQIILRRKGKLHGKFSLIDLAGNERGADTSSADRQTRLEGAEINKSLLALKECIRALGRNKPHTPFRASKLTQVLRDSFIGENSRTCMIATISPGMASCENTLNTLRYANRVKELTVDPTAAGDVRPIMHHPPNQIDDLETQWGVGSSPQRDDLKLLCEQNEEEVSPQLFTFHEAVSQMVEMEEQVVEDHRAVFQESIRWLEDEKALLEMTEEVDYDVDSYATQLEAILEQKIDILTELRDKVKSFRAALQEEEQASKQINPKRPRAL
UniProt P49674: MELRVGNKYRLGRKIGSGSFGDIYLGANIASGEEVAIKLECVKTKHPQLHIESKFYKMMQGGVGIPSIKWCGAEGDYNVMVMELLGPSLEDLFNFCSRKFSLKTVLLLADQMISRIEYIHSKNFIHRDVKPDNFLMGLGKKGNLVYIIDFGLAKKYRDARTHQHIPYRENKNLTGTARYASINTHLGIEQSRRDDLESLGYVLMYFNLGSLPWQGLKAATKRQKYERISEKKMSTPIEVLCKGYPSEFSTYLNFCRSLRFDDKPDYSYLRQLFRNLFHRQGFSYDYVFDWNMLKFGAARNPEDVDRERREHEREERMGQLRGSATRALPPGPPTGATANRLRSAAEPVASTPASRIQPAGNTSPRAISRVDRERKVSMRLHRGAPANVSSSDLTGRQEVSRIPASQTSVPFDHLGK
UniProt P49841: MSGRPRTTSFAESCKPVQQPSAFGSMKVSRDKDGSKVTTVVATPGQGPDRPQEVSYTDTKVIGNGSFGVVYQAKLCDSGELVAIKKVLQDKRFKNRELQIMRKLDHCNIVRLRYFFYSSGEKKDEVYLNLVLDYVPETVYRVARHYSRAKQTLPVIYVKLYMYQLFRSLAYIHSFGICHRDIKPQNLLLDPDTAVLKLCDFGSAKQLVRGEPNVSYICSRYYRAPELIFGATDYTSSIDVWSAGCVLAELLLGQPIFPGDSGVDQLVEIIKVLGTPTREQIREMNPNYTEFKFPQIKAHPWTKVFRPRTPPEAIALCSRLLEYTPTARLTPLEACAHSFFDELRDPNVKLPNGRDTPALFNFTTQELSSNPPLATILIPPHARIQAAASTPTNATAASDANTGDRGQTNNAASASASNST
UniProt Q9Y297: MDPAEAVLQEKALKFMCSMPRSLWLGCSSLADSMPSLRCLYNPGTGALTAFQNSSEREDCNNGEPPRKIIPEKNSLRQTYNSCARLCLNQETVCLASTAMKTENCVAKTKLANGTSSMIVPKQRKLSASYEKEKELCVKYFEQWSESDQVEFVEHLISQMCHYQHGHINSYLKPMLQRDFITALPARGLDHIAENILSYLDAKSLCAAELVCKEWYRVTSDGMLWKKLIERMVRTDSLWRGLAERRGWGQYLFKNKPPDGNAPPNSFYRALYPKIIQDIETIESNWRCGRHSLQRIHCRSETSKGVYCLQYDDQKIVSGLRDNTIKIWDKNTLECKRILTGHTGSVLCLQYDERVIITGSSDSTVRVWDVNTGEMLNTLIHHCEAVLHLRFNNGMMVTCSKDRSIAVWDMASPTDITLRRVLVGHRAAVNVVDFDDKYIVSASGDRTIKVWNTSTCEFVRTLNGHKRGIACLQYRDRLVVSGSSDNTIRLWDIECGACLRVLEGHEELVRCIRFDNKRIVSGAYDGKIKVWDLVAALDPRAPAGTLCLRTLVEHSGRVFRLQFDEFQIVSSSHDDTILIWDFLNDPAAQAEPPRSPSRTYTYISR
UniProt O15169: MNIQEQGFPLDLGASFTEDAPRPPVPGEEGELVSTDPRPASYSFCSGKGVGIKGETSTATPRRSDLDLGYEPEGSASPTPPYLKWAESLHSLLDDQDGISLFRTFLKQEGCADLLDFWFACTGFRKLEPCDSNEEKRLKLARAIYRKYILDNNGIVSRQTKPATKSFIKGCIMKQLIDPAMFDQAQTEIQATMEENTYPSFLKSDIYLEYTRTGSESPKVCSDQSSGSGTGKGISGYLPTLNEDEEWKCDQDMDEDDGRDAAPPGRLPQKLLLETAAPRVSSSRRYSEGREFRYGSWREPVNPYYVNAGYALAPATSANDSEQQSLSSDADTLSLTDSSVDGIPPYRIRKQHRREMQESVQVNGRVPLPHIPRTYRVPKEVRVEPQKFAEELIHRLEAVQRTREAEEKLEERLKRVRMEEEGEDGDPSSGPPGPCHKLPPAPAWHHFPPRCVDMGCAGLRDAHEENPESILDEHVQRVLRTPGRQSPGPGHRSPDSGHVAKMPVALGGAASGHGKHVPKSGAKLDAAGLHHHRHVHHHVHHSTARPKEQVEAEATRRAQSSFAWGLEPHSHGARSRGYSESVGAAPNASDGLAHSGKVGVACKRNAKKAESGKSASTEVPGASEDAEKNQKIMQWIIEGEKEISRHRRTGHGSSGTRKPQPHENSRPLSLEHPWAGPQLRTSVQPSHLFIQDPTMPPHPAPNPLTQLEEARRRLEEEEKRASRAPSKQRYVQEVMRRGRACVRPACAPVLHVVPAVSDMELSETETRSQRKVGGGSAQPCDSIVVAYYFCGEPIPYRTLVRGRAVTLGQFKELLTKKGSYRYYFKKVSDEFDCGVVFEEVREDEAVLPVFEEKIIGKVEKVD
UniProt P53350: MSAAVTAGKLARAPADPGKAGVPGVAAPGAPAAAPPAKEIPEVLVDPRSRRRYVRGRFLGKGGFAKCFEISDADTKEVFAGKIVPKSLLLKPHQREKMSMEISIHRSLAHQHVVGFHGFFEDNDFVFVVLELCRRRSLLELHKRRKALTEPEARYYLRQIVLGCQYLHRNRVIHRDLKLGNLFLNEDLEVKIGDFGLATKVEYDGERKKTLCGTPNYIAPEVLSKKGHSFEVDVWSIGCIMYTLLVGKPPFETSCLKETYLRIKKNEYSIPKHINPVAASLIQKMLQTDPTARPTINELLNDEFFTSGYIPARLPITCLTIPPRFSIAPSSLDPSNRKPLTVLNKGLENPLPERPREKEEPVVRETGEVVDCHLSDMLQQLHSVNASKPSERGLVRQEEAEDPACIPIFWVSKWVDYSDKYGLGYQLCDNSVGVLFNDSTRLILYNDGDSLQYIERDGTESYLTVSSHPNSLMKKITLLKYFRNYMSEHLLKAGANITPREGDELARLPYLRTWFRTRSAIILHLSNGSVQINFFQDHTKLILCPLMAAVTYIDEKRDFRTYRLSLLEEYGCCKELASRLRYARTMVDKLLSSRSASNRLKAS
UniProt P35222: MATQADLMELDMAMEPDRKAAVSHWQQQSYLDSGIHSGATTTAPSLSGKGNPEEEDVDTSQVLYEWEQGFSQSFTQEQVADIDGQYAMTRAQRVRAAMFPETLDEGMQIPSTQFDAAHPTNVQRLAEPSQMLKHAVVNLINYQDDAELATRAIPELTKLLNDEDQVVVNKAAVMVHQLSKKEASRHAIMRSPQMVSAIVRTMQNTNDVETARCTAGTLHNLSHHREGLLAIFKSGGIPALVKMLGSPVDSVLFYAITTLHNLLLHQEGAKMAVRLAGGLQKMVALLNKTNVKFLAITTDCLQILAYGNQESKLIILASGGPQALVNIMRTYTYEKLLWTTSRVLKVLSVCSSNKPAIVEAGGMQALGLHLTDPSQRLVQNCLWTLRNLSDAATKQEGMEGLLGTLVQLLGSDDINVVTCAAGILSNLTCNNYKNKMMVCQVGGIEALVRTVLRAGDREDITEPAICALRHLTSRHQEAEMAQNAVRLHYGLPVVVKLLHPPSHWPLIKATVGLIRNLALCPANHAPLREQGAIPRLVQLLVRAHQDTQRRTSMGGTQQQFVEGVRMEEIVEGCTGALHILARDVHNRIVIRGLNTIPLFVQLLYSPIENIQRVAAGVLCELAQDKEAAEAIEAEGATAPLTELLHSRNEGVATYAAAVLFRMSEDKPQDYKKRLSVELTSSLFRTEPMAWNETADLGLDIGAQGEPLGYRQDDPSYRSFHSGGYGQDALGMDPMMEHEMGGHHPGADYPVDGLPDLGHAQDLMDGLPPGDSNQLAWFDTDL

How the values were obtained:
[1] = molecular target: EGFP-KIF2A (UniProt O00139); test: proximity ligation
[2] = molecular target: endogenous KIF2A (human (endogenous in HeLa)) (UniProt O00139); test: proximity ligation

Substance	binding [1]	binding [2]
FLAG-hCK1ε (from UniProt P49674 1-416) (enzyme)	no binding	
FLAG-GSK3 (from UniProt P49841 1-420) (enzyme)	no binding	
FLAG-β-TrCP (from UniProt Q9Y297 1-605)	no binding	
FLAG-Axin1 (from UniProt O15169 1-862)	binds	
endogenous PLK1 (from UniProt P53350 1-603) (enzyme)		binds
FLAG-β-catenin (from UniProt P35222 1-781)	no binding	
